Numbering of substitutions follows the chain as printed. These are yes or no findings as the source states them, for the method shown. Some results given as binding are weak or reduced against the parent protein; the word gives no strength.
B1: Ab2 variant 2F5(3_4A4) (Fab, V domains shown)
VH: EVQLVESGGGLVKPGGSLRLSCAASGFTFSDYGIHWVRQAPGKGLEWVGRIKSKTDGGITEYAAPVKGRFTISRDDSKNTLYLQMNSLKTEDTAVYYCARAIYYLEAFDVWGQGTLVTVSS
VL: DIELTQPPSVSVSPGQTASITCSGDSLGSYYVHWYQQKPGQAPVLVIYRNKQRPSGIPERFSGSNSGNTATLTISGTQAEDDADYYCAVWDDEPHHDVFGGGTKLTVLG
B2: Ab2 variant 2G6(3_4D9) (Fab, V domains shown)
VH: B1 VH
VL: B1 VL with A88Q, V89T, W90Y, D92S, E93L, P94K, H95F, H96S, D97R
B3: Ab2 variant 1F2(3_1B1) (Fab, V domains shown)
VH: B1 VH
VL: B1 VL with D82E, A88Q, V89T, W90F, D92S, E93Q, P94A, H95V, H96T, D97N
B4: Ab2 variant 2A6(3_4A10) (Fab, V domains shown)
VH: B1 VH
VL: B1 VL with D82E, A88Q, V89T, W90F, D92S, E93Q, P94A, H95V, H96T, D97N
B5: Ab2 variant 2B7(3_4G1) (Fab, V domains shown)
VH: B1 VH
VL: B1 VL with V89T, W90Y, D92S, E93S, P94S, H95W, H96W, D97N
B6: Ab2 variant 2B8(4_3E10) (Fab, V domains shown)
VH: B1 VH
VL: B1 VL with D82E, A88Q, V89T, D92W, E93W, P94A, H95R, D97W
B7: Ab2 variant 2C9(4_4E3) (Fab, V domains shown)
VH: B1 VH
VL: DIELTQPPSVSVSPGQTASITCSGDSLGSYYVHWYQQKPGQAPVLVIYRNKQRPSGIPERFSGSNSGNTATLTISGTQAEDEADYYCASYTSPINVFGGGTKLTVLG
B8: Ab2 variant 2C1(2_3A5) (Fab, V domains shown)
VH: EVQLVESGGGLVKPGGSLRLSCAASGFTFSNAWMSWVRQAPGKGLEWVGHIKSSNMGGAAQYAASVKGRFTISRDDSKNTLYLQMNSLKTEDTAVYYCARAIYYLEAFDVWGQGTLVTVSS
VL: B1 VL with D82E, A88Q, V89T, W90Y, D92W, E93M, P94Y, H95S, H96S, D97R
B9: Ab2 variant 2D1(2_3A7) (Fab, V domains shown)
VH: B8 VH with H50F, I51T, S53N, S54E, N55V, M56G, G58Y, A59T, A60T, Q61E
VL: B1 VL with D82E, A88Q, V89T, W90Y, D92W, E93M, P94Y, H95S, H96S, D97R
B10: Ab2 variant 2H2(2_3H8) (Fab, V domains shown)
VH: B8 VH with H50R, S53A, S54F, N55K, M56E, G58Y, A59I, A60T
VL: B1 VL with D82E, A88Q, V89T, W90Y, D92W, E93M, P94Y, H95S, H96S, D97R
B11: Fab clone Ab2 (Fab, V domains shown)
VH: B1 VH
VL: B1 VL with D82E, A88Q, V89T, W90Y, D92W, E93M, P94Y, H95S, H96S, D97R
notes: also called parental Ab2; ZNRF3 hFab

The chains behind the UniProt entries cited, without tags or fusion partners. Where a name states a change or a piece, a line headed by the entry shows the natural chain unless it says otherwise.
UniProt Q9ULT6: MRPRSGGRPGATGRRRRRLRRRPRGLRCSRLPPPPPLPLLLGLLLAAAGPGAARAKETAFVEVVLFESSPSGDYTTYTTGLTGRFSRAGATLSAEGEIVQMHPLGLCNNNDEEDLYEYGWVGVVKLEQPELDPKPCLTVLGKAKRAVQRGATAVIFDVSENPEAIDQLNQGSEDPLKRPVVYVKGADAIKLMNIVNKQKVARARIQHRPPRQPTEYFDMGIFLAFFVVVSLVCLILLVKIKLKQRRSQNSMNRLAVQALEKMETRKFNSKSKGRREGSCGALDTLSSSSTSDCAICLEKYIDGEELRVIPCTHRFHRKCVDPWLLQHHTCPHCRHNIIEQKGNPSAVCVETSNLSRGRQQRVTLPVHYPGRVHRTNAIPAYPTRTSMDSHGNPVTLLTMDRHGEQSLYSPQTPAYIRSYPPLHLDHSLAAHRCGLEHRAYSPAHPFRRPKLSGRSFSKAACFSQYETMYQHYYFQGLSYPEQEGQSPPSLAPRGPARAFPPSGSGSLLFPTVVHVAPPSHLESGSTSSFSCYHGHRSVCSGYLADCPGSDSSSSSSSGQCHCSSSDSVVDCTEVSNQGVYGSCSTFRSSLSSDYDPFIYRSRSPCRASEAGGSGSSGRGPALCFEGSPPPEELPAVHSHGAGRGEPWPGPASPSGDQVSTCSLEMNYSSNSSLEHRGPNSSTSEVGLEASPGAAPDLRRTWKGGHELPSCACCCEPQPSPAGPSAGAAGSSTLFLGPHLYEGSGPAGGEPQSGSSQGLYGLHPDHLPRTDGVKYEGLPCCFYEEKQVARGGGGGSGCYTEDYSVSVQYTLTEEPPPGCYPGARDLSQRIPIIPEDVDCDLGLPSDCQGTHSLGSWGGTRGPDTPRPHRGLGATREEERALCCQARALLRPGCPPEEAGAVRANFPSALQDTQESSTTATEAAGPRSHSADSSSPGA

Each binder was assayed against ZNRF3 (form used in the variant selection and the lysate ELISA not stated) (human) (UniProt Q9ULT6) (assay: selection from the LCDR3 affinity maturation library).

Row | Binder | binding
1 | B1 | binds
2 | B2 | binds
3 | B3 | binds
4 | B4 | binds
5 | B5 | binds
6 | B6 | binds
7 | B7 | binds

These binders were tested against ZNRF3 (form used in the variant selection and the lysate ELISA not stated) (human) (UniProt Q9ULT6) (assay: selection from the HCDR2 affinity maturation library).

Row | Binder | binding
8 | B8 | binds
9 | B9 | binds
10 | B10 | binds

These binders were tested against ZNRF3 (form used in the variant selection and the lysate ELISA not stated) (human) (UniProt Q9ULT6) (assay: ELISA; parental Fab as the reference).

Row | Binder | binding
11 | B11 | binds

These binders were tested against ZNRF3 (form used in the variant selection and the lysate ELISA not stated) (human) (UniProt Q9ULT6) (assay: ELISA with unpurified Fab lysates).

Row | Binder | binding
12 | B1 | binds
13 | B2 | binds
14 | B8 | binds
15 | B9 | binds
16 | B10 | binds
17 | B3 | binds
18 | B4 | binds
19 | B5 | binds
20 | B6 | binds
21 | B7 | binds

— patent US20180066067A1 (Novartis, published 2018)
